The target in the test is T1, eIF4G2 (human (endogenous in SW620 and LoVo)) (UniProt P78344).
T1 sequence: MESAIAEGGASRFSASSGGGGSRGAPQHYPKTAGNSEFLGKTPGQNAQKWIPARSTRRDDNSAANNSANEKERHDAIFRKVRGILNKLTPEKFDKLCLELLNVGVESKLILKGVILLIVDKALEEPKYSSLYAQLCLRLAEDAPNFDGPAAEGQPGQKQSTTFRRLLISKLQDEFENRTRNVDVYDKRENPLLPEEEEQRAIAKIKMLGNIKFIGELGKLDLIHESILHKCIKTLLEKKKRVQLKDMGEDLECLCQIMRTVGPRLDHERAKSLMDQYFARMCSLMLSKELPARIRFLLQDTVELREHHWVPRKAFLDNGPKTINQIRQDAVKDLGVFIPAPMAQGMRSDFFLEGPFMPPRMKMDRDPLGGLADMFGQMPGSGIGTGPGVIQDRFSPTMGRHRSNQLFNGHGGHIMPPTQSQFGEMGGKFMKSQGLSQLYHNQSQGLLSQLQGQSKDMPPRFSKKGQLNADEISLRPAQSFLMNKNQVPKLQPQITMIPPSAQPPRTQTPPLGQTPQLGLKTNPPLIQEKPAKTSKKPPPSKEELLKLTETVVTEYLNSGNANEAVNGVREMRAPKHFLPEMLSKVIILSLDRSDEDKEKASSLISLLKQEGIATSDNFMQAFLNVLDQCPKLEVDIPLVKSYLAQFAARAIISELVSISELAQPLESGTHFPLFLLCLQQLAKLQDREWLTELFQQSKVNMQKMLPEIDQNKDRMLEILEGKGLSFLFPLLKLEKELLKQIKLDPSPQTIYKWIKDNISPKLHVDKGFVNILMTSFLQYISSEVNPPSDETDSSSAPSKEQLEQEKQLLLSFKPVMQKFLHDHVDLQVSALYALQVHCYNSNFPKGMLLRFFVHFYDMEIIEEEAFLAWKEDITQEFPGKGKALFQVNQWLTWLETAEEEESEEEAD
The test can be described thus: co-IP; endogenous proteins in SW620 and LoVo lysates (RIPA buffer), primary antibody 4 °C 3 h, protein A/G agarose, western blot. (In general: A western blot detects proteins with antibodies after separation by electrophoresis.)

No constants are given. Whether binding was seen depends on the method and setting. In cells and extracts the contact can be indirect. Some entries that bind do so weakly or less than the wild type.

B1: YTHDF3 (protein, UniProt Q7Z739 1-585)
chain: MSATSVDQRPKGQGNKVSVQNGSIHQKDAVNDDDFEPYLSSQTNQSNSYPPMSDPYMPSYYAPSIGFPYSLGEAAWSTAGDQPMPYLTTYGQMSNGEHHYIPDGVFSQPGALGNTPPFLGQHGFNFFPGNADFSTWGTSGSQGQSTQSSAYSSSYGYPPSSLGRAITDGQAGFGNDTLSKVPGISSIEQGMTGLKIGGDLTAAVTKTVGTALSSSGMTSIATNSVPPVSSAAPKPTSWAAIARKPAKPQPKLKPKGNVGIGGSAVPPPPIKHNMNIGTWDEKGSVVKAPPTQPVLPPQTIIQQPQPLIQPPPLVQSQLPQQQPQPPQPQQQQGPQPQAQPHQVQPQQQQLQNRWVAPRNRGAGFNQNNGAGSENFGLGVVPVSASPSSVEVHPVLEKLKAINNYNPKDFDWNLKNGRVFIIKSYSEDDIHRSIKYSIWCSTEHGNKRLDAAYRSLNGKGPLYLLFSVNGSGHFCGVAEMKSVVDYNAYAGVWSQDKWKGKFEVKWIFVKDVPNNQLRHIRLENNDNKPVTNSRDTQEVPLEKAKQVLKIIATFKHTTSIFDDFAHYEKRQEEEEAMRRERNRNKQ
Consider B1, for which the binding entry was “binds”.

For the origin of these results see paper PMC10717141.
